Data as given in article PMC3587586.
These are yes or no findings as the source states them, for the method shown. In cells and extracts the contact can be indirect. Some entries that bind do so weakly or less than the wild type.

Chains of the proteins cited; added tags and fusions are not shown.
UniProt P55211: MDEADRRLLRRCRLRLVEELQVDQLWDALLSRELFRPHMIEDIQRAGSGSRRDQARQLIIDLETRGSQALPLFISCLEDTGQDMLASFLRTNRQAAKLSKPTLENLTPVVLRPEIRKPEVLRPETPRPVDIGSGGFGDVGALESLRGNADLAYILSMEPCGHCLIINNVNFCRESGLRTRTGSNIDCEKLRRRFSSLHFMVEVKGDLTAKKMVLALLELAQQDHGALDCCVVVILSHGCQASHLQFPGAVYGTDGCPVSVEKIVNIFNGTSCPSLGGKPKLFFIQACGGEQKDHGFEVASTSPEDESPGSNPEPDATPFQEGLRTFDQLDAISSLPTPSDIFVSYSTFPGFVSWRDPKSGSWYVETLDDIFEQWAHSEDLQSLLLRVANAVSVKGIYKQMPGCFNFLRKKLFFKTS

How the values were obtained:
[1] = target: T1, Retinoic acid-inducible gene-I (RIG-I) (human (endogenous in CAL27 and SCC4)) (UniProt O95786); assay: co-IP; lysates of CAL27 or SCC4 cells transfected with a high dose of 3p-RNA for 16 h; immunoprecipitated with anti-RIG-I antibody cross-linked to protein A-Sepharose, blotted for caspase-9
T1 sequence: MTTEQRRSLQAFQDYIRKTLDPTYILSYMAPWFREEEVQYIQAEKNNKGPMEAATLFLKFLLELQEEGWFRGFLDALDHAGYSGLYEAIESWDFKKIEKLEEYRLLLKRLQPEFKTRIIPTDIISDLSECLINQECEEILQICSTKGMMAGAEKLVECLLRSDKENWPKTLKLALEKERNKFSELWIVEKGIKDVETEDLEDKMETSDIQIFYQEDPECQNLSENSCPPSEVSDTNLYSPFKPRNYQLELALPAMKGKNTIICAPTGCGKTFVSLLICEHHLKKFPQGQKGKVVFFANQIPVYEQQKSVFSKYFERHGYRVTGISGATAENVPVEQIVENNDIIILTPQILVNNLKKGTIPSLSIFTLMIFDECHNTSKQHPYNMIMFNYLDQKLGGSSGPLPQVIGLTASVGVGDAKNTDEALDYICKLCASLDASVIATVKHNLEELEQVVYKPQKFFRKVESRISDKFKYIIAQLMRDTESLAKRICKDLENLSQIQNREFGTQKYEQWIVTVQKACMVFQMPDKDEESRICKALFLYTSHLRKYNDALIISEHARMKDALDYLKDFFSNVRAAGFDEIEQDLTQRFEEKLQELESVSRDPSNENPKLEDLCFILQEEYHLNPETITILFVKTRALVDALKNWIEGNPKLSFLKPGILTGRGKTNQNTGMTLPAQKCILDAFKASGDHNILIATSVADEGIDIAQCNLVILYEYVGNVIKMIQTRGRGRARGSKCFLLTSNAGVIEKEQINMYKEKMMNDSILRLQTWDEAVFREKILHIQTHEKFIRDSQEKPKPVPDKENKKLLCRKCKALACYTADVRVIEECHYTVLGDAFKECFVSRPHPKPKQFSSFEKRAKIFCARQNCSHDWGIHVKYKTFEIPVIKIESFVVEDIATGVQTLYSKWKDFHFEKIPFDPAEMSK

[2] = target: T1, Retinoic acid-inducible gene-I (RIG-I) (human (endogenous in CAL27 and SCC4)); assay: condition: only cells overexpressing HA-tagged constitutively active Akt; co-IP; lysates of CAL27 cells pre-transfected with HA-tagged constitutively active Akt for 24 h, then with 3p-RNA for 16 h; immunoprecipitated with a RIG-I antibody, blotted with a caspase-9 antibody
[3] = target: T1, Retinoic acid-inducible gene-I (RIG-I) (human (endogenous in CAL27 and SCC4)); assay: condition: only cells transfected with a low dose of 3p-RNA; co-IP; lysates of CAL27 or SCC4 cells transfected with a low dose of 3p-RNA for 16 h; immunoprecipitated with anti-RIG-I antibody cross-linked to protein A-Sepharose, blotted for caspase-9

binding [1]: binds
binding [2]: no binding
binding [3]: no binding
Substance: pro-caspase-9 (from UniProt P55211 1-416)
